Results published in PMC5397179.
Positions count from the first letter of the chain named. Results are given in words; binding and its absence hold for the method and conditions named. Binding seen in cells or lysates may run through a third protein. Some results given as binding are weak or reduced against the parent protein; the word gives no strength. For some assays here: Where a sequence is shown, tags or fusion partners need not be part of it.

By UniProt entry, the sequences of proteins in these tests, tags left out. Where a name states a change or a piece, a line headed by the entry shows the natural chain unless it says otherwise.
UniProt P20429: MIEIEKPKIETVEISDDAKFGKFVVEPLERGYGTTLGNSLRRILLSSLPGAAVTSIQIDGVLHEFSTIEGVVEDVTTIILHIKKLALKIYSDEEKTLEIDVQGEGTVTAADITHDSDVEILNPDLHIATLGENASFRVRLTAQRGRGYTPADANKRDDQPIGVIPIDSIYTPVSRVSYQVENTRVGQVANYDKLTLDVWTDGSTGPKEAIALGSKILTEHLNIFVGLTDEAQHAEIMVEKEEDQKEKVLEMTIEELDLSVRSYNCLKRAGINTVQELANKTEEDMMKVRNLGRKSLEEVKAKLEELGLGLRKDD

Legend:
[1] = target: T1, Biotinylated full length PcrA K712A (Geobacillus stearothermophilus) (UniProt P56255); assay: pull-down; biotinylated purified bait on streptavidin-coated magnetic beads; prey: DNA/RNA-depleted extract of B. subtilis 168; SDS-PAGE and western blot with an anti-RNAP beta antibody; only the target purified
T1 sequence (chain, biotin): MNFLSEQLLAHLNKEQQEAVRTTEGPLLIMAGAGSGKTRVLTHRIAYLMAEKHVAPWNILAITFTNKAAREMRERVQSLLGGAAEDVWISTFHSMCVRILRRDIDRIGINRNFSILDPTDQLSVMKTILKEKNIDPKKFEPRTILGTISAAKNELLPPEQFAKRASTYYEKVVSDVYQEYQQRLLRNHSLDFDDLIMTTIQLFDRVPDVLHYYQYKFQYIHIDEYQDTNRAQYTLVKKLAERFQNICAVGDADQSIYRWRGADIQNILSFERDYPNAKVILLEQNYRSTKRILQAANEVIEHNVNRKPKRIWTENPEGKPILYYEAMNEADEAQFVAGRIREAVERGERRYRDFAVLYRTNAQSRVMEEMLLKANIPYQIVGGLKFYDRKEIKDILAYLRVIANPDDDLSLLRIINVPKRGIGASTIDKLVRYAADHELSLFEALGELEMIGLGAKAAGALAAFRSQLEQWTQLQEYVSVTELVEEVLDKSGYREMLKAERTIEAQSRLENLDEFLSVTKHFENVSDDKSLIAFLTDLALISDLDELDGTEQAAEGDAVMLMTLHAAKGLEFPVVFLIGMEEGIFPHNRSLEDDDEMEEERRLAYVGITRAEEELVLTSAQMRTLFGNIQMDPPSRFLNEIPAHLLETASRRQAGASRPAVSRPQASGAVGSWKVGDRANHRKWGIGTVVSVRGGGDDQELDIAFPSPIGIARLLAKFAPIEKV

[2] = target: T2, Biotinylated full length PcrA (Geobacillus stearothermophilus), wild type (Geobacillus stearothermophilus) (UniProt P56255); assay: as above
T2 sequence (chain, biotin): T1 sequence (chain, biotin) with A712K

[3] = target: T3, Biotinylated full length PcrA L714A (Geobacillus stearothermophilus) (UniProt P56255); assay: as above
T3 sequence (chain, biotin): T1 sequence (chain, biotin) with A712K, L714A

[4] = target: T4, His-tagged PcrA-short Ct (PcrA-sCt, residues 673-724 of Geobacillus stearothermophilus PcrA) (Geobacillus stearothermophilus) (UniProt P56255); assay: pull-down; His-tagged purified bait on Ni2+-NTA magnetic beads; prey: DNA/RNA-depleted extract of B. subtilis 168; SDS-PAGE and western blot with an anti-RNAP beta antibody; only the target purified
T4 sequence: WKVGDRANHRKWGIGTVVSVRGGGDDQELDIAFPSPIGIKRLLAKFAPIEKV

[5] = target: T5, His-tagged PcrA-Ct (C-terminal domain of Geobacillus stearothermophilus PcrA, residues 653-724) (Geobacillus stearothermophilus) (UniProt P56255); assay: as above
T5 sequence: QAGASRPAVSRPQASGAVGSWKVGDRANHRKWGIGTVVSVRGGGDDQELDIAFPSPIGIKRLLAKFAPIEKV

- binding [1]: binds weakly
- binding [2]: binds
- binding [3]: binds weakly
- binding [4]: binds
- binding [5]: binds
Substance: Bacillus subtilis RNA polymerase (RNAP), endogenous in cell extract (from UniProt P20429 1-314; P37870 1-1193; P37871 1-1199; P12464 1-173; O35011 1-67) (complex)
